# PubChem BioAssay AID1259308 | NCATS – 2017
# Purpose: 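Knock-downs that increase output of a recombinant reporter protein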 (primary screen)
# Cells: human HEK293 embryonic kidney cells stably expressing firefly luciferase (HEK-CMV-Luc2-Hygro)
# Reagent: single siRNA against human genes, 0.8 pmol siRNA per well
# Timing: 72 h
# Measured: 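Luciferase light (ONE-Glo) measured on one replicate plate set and viability (CellTiter-Glo) on the other, scaled to a negative control siRNA, with robust z-scores and luciferase per cell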
# Scale: total luciferase, z-score and total luciferase, % of control: higher = more reporter protein produced; luciferase per cell, z-score: higher = more reporter output per viable cell; viable cells, % of control: higher = more viable cells
# Active means: 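An siRNA counts as active if its total luciferase robust z-score exceeds 3; genes with two or more such siRNAs out of three were retested with fresh siRNAs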
# Meaning of the calls: active = raised luciferase; inactive = no rise
# Here is a random part of about 59,000 reagents. About 1,510 of them (2.6%) were called active. 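Calls use total luciferase alone and ignore viability, so some active siRNAs may act by altering cell number.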 The numbers tell different reagents against one gene apart. No sequences are given here.
target,reagent,"total luciferase, z-score","total luciferase, % of control","luciferase per cell, z-score","viable cells, % of control",Call
SPATA2,1,-0.374,74.5,0.835,66.8,inactive
SPATA2,2,-2.79,26.4,-3.59,76,inactive
SPATA2,3,-2,42.1,2.02,27.7,inactive
CANX,1,-0.992,62.2,0.0493,68.6,inactive
CANX,2,-0.443,73.1,-0.588,95.3,inactive
CANX,3,-0.148,78.9,0.000246,88.2,inactive
CFAP221,1,0.118,84.2,0.369,85.4,inactive
CFAP221,2,0.717,96.1,1.21,78.1,inactive
CFAP221,3,1.42,110,1.36,86.2,inactive

Next part (3 carried over from the part before).
target,reagent,"total luciferase, z-score","total luciferase, % of control","luciferase per cell, z-score","viable cells, % of control",Call
CFAP221,1,0.118,84.2,0.369,85.4,inactive
CFAP221,2,0.717,96.1,1.21,78.1,inactive
CFAP221,3,1.42,110,1.36,86.2,inactive
FBXO47,1,-0.315,75.6,-0.000216,84.5,inactive
FBXO47,2,0.314,88.1,0.672,82.5,inactive
FBXO47,3,-0.275,76.4,-0.542,98.5,inactive
IRX6,1,-0.43,73.3,0.516,71.5,inactive
IRX6,2,-0.269,76.5,-0.437,96,inactive
IRX6,3,0.346,88.8,0.155,95.2,inactive
FGD2,1,1.04,103,3.59,44.5,inactive
FGD2,2,0.487,91.6,1.5,68.9,inactive
FGD2,3,-0.78,66.4,-0.701,89.2,inactive
RTEL1,1,-0.798,66,-0.843,92.1,inactive
RTEL1,2,1.76,117,1.4,90.3,inactive
RTEL1,3,-0.00706,81.7,-0.209,96.5,inactive
THRSP,1,0.419,90.2,0.222,95.1,inactive
THRSP,2,-0.889,64.2,-0.587,83.7,inactive
THRSP,3,0.118,84.2,0.205,89.2,inactive
